# Assay results as given in the supplement of paper PMC6411743.
# Protein sequences, listed by entry. Tags and fused reporters are not part of them. Lines headed by an entry give the natural chain unless they say otherwise; changes in a name come on top.
# UniProt P32929, whole entry: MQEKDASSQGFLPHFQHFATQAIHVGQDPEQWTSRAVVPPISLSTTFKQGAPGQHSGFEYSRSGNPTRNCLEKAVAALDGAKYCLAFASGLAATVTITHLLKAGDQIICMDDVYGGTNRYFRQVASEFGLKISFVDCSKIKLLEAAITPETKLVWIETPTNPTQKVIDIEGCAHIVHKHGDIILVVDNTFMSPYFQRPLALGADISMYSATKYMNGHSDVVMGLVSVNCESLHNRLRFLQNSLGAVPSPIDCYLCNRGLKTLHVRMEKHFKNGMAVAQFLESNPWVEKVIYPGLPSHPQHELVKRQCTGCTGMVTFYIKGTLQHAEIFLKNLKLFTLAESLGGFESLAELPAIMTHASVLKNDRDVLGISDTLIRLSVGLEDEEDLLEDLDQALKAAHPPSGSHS
# UniProt P18669: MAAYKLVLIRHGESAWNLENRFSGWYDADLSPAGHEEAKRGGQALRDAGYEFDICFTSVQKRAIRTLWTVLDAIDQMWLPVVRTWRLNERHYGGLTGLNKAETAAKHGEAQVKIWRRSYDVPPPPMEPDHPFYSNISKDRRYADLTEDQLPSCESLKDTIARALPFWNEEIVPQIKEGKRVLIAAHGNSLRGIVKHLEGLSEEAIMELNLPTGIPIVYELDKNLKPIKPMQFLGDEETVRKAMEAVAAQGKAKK
# UniProt P33527: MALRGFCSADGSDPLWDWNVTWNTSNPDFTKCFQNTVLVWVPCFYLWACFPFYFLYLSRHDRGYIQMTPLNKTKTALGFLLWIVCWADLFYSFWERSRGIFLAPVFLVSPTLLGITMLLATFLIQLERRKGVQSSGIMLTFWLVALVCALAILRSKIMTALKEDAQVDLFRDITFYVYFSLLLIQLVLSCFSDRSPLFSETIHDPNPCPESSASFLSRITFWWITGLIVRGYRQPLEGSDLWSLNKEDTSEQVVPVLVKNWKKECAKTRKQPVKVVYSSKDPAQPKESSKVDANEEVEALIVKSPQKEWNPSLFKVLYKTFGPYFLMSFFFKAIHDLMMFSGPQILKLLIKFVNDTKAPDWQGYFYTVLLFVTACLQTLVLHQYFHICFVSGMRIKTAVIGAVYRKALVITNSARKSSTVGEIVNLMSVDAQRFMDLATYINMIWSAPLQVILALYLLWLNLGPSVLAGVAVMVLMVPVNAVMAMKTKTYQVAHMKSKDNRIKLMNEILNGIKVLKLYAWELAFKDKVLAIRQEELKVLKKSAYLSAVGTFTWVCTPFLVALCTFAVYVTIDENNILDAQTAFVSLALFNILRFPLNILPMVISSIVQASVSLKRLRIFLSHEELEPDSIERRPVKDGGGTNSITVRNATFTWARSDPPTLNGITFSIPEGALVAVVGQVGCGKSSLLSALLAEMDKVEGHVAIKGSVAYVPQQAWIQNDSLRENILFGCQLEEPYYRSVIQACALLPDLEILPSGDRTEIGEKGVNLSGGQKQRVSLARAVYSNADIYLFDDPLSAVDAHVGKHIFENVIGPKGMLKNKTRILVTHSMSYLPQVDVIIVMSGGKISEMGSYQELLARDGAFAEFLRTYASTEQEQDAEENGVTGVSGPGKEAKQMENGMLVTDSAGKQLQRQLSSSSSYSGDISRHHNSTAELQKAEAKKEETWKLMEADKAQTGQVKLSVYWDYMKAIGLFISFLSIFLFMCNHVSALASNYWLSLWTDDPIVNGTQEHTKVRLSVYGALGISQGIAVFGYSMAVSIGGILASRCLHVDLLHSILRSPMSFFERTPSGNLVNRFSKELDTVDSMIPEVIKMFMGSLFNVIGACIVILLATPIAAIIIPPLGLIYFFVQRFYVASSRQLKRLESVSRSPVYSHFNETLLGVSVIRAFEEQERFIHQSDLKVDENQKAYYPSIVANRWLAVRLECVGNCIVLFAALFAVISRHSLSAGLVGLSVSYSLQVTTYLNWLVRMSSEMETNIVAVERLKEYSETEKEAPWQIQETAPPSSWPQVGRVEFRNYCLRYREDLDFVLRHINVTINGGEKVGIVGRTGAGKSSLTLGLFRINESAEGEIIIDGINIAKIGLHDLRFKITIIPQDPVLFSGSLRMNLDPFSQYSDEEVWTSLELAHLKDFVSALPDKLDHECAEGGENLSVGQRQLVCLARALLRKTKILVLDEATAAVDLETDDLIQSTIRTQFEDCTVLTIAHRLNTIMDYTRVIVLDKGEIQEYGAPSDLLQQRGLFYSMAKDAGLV
# UniProt P22670: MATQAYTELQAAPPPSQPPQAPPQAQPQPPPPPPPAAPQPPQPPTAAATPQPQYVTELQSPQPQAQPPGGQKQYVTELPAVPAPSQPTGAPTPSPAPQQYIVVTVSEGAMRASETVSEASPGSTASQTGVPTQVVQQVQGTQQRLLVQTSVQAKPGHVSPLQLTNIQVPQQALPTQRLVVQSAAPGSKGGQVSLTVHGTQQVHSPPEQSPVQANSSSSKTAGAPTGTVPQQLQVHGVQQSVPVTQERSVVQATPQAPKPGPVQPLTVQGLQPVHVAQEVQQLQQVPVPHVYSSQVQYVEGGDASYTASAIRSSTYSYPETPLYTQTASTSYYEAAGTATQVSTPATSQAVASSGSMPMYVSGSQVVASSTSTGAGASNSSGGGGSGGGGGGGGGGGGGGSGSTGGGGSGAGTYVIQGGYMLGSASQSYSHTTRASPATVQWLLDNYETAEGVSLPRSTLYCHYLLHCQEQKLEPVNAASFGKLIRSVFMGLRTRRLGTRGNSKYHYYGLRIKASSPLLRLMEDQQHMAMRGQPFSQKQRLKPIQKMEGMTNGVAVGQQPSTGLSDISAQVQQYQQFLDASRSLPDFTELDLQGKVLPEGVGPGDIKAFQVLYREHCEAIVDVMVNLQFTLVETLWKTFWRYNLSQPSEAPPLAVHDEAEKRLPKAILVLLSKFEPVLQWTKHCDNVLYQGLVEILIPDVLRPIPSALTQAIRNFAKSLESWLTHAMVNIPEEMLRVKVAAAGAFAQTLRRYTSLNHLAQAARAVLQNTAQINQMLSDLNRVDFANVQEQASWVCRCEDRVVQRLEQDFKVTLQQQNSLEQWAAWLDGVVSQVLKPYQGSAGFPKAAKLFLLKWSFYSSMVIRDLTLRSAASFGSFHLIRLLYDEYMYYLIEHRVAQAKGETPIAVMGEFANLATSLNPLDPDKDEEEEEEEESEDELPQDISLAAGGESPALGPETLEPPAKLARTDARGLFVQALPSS
# UniProt P33981: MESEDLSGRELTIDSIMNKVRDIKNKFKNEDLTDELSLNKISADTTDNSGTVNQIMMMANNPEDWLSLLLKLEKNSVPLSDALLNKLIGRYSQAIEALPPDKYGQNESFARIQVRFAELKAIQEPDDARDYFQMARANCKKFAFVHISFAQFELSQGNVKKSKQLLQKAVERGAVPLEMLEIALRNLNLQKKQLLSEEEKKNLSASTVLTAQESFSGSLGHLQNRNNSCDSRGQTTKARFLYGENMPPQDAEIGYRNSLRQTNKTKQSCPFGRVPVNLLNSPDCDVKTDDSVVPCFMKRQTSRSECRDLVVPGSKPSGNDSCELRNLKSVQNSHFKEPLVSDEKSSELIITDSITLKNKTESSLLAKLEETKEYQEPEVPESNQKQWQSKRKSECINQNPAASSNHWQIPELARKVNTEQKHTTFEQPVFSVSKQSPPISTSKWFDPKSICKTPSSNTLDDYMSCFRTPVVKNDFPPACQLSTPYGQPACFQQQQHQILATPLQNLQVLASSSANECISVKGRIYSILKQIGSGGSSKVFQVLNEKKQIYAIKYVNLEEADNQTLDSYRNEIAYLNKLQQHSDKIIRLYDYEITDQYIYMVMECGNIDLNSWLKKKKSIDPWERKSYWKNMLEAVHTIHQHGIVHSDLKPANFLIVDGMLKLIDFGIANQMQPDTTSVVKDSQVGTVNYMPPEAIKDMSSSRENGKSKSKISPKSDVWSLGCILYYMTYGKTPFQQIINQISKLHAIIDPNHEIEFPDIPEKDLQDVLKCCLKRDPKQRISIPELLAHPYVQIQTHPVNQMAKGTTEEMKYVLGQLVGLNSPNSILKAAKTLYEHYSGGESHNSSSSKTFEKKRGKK
# UniProt P21283, whole entry: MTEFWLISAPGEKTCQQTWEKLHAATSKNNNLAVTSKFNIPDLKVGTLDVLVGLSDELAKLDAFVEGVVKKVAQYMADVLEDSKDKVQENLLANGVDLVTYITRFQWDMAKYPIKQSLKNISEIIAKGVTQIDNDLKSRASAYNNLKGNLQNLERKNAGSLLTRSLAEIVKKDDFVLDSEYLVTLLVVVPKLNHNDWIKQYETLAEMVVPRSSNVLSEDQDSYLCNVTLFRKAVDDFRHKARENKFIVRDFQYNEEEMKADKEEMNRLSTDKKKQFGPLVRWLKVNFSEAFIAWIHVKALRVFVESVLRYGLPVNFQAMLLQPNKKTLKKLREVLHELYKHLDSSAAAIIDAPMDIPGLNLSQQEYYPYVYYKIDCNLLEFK
# UniProt P30085: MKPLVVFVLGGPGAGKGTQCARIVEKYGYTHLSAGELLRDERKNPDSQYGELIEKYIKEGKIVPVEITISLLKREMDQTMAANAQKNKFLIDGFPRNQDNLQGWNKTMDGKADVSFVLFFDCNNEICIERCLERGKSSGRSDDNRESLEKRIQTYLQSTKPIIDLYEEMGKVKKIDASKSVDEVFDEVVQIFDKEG
# UniProt P27986, whole entry: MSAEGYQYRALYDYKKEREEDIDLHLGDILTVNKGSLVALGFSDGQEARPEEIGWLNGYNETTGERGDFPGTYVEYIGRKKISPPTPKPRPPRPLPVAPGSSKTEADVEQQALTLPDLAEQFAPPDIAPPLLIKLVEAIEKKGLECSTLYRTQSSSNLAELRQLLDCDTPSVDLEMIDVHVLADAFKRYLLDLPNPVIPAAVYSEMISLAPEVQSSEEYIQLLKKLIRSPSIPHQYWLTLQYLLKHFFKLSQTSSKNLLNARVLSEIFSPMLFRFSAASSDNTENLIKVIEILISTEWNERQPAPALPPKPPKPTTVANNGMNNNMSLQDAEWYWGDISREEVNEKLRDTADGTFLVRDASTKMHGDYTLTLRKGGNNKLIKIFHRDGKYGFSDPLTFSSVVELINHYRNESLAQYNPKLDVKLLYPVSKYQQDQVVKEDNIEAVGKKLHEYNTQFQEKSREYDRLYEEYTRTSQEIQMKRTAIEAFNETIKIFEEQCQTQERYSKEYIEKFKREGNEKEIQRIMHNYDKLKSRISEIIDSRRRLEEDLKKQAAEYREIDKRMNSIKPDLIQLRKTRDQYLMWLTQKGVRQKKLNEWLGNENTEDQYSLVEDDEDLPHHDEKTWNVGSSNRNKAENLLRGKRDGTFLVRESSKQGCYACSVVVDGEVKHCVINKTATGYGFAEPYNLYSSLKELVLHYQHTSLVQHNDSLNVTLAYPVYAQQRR
# UniProt P20963, whole entry: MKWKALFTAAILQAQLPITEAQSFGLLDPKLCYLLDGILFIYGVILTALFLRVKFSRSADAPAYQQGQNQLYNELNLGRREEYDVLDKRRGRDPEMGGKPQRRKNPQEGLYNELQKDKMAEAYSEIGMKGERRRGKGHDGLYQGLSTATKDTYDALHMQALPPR
# UniProt P36542: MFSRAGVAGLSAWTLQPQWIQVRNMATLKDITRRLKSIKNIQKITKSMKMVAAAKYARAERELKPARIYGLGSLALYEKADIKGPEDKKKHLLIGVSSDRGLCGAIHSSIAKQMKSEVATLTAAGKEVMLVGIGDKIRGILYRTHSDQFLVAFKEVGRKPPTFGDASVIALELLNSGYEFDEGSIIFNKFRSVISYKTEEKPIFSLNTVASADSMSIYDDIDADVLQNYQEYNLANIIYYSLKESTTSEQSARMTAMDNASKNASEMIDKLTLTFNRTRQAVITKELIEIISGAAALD
# UniProt P29218: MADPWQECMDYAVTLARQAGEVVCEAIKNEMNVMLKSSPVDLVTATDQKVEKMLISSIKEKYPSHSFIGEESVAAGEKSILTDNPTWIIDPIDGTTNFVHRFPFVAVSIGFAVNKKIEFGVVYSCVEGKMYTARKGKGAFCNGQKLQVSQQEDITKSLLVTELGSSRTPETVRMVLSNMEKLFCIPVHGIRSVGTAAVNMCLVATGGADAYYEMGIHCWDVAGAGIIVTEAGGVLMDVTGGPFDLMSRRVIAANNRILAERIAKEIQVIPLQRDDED
# UniProt P20073: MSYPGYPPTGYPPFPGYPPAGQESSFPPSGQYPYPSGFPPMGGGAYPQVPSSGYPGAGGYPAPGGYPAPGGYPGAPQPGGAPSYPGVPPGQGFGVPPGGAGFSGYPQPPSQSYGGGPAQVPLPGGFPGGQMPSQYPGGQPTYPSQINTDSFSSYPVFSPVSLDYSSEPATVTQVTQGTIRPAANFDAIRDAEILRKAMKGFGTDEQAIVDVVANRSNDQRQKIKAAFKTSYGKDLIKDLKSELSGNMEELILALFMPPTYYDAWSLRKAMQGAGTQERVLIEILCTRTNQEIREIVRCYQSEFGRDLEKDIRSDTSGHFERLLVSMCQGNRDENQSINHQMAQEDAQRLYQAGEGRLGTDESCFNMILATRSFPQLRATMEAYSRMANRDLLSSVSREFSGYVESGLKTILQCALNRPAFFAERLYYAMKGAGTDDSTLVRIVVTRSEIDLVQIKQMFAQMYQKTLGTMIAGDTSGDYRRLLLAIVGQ
# ± gives the standard deviation of the averaged measurements. The list shows a part of the results, in another mix than the full data. Most entries show no effect beyond the scatter of the controls.
# Compound: Nc1ncnc2c1ncn2[C@@H]1O[C@H](COP(=O)(O)OP(=O)(O)NP(=O)(O)O)[C@@H](O)[C@H]1O [adenylyl imidodiphosphate]
# Assay: NP40-soluble protein abundance relative to vehicle (solubility fold change) (ratio); higher = more soluble protein in presence of AMP-PNP
# In short: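 Jurkat crude lysate (Dounce-homogenised) was treated with eight concentrations from 0.1 to 10 mM for 10 min at room temperature, then 3 min at 37 °C. It was solubilised with 0.8% NP40 and benzonase (60 min, 4 °C) and ultracentrifuged, and the supernatant was TMT-labelled for LC-MS/MS. Intensities were vsn-normalised, and the value is the fold change against the NP40-processed vehicle per replicate, from three independent experiments.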
Target,NP40-soluble protein abundance (concentration: 0.1mM),NP40-soluble protein abundance (concentration: 0.5mM)
AKAP5 (UniProt P24588),0.972 ± 0.022,0.991 ± 0.041
UniProt P32929 and related entries,1.02 ± 0.043,0.984 ± 0.079
UniProt P36639 and related entries,0.986 ± 0.046,0.995 ± 0.047
PGAM1 (UniProt P18669),0.881 ± 0.09,0.964 ± 0.025
ABCC1 (UniProt P33527),0.997 ± 0.012,0.99 ± 0.039
POLR2C (UniProt P19387),0.994 ± 0.038,0.986 ± 0.046
RFX1 (UniProt P22670),1 ± 0.038,1.01 ± 0.035
UniProt P33981 and related entries,1.01 ± 0.042,1.03 ± 0.034
DNAJA1 (UniProt P31689),0.942 ± 0.09,0.927 ± 0.063
ATP6V1C1 (UniProt P21283),1.01 ± 0.021,0.975 ± 0.021
GALNS (UniProt P34059),0.948 ± 0.033,0.974 ± 0.023
PPIB (UniProt P23284),0.977 ± 0.024,1.02 ± 0.028
UniProt P19367 and related entries,1.04 ± 0.027,1.01 ± 0.065
CMPK1 (UniProt P30085),0.923 ± 0.063,1.02 ± 0.035
PIK3R1 (UniProt P27986),1.008 ± 0.0034,0.968 ± 0.028
UniProt P20963-3|P20963,1.01 ± 0.069,1.01 ± 0.054
HIBADH (UniProt P31937),0.99 ± 0.023,1.02 ± 0.04
ABCD3 (UniProt P28288),1.04 ± 0.066,0.993 ± 0.13
UniProt P36542,0.996 ± 0.05,1.03 ± 0.022
UniProt P30154 and related entries,0.96 ± 0.032,0.978 ± 0.026
UniProt P29016,1.02 ± 0.035,0.998 ± 0.056
IMPA1 (UniProt P29218),0.985 ± 0.03,0.968 ± 0.045
UniProt P20073 and related entries,1.01 ± 0.038,0.99 ± 0.031

# Look-ups from the list:
# Value of ATP6V1C1 (UniProt P21283) under NP40-soluble protein abundance (concentration: 0.1mM): 1.01 ± 0.021
# Value of HIBADH (UniProt P31937) under NP40-soluble protein abundance (concentration: 0.5mM): 1.02 ± 0.04
